This is an account of results in PubChem BioAssay AID248 (DTP/NCI, 2004).

The list shows only some results of the screen, not a fair sample: it is rich in T/C values a quarter to a half above the control, in often repeated tests (any T/C) and in doses without a T/C. Other doses and runs of a compound stand elsewhere. T/C gives the treated animals as a percentage of the vehicle group. Some entries give survivors of the animals treated and no T/C: the source holds a T/C of zero for them, seemingly a mark for toxic or unscored doses. Some doses without a T/C left all or most animals alive at the check, yet need not have been tolerated: the source hardly ever lists a survival T/C far under the control, and the zero likely stands for such cases as well. Survivors were counted at the toxicity check, usually on the fifth day, unless a day is given; later deaths do not show. Schedule codes are those of the source, taken here to give the interval after Q, in days (D) or hours (H), and the number of doses after X. Some entries were tested several times; their values stand side by side, smallest first. Some schedule codes hold Z or #, which are not explained here. Where survival is the endpoint, this PubChem deposit counts one and a half times the control or more as active, and values a quarter to a half above the control carry no call in these data; other NCI protocols may use other cut-offs.

For this test, the system named is L1210 leukemia ip in BDF1 mice, survival T/C. Nature of the test: NCI In Vivo Anticancer Drug Screen. Data for tumor model L1210 Leukemia (intraperitoneal) in B6D2F1 (BDF1) mice. The note with it: T/C endpoint: mean survival time, higher T/C = longer survival.
Setting [1] is: dose: 400.0 mg/kg/injection, schedule: Q01DX001 (ip), vehicle: saline.
The mark [2] stands for this setting: dose: 400.0 mg/kg/injection, schedule: Q04DX003 (ip), vehicle: Klucel (hydroxypropylcellulose) (HPC).
[3] abbreviates: dose: 400.0 mg/kg/injection, schedule: Q01DX009 (ip), vehicle: saline with Tween-80.
Setting [4] is: dose: 25.0 mg/kg/injection, schedule: Q01DX009 (ip), vehicle: saline with Tween-80.
[5] abbreviates: dose: 50.0 mg/kg/injection, schedule: Q01DX009 (ip), vehicle: saline with Tween-80.
Setting [6] is: dose: 100.0 mg/kg/injection, schedule: Q01DX009 (ip), vehicle: saline with Tween-80.
Where [7] appears, read: dose: 200.0 mg/kg/injection, schedule: Q01DX009 (ip), vehicle: saline with Tween-80.
[8] abbreviates: dose: 150.0 mg/kg/injection, schedule: Q01DX001 (ip), vehicle: saline.
Where [9] appears, read: dose: 300.0 mg/kg/injection, schedule: Q01DX001 (ip), vehicle: saline.
[10] abbreviates: dose: 100.0 mg/kg/injection, schedule: Q01DX009 (ip), vehicle: Klucel (hydroxypropylcellulose) (HPC).
[11] abbreviates: dose: 200.0 mg/kg/injection, schedule: Q01DX009 (ip), vehicle: Klucel (hydroxypropylcellulose) (HPC).
Where [12] appears, read: dose: 400.0 mg/kg/injection, schedule: Q01DX009 (ip), vehicle: Klucel (hydroxypropylcellulose) (HPC).

As for `CCCCCCCCCCCCCCCCNC(=S)N/N=C(/C=C/c1ccccc1)C(=O)O`, for the setting “dose: 120.0 mg/kg/injection, schedule: Q01DX Z (ip), vehicle: carboxymethylcellulose (CMC)”, the survivor count is recorded as 0 of 6.
Turning to `O=C(c1ccccc1)C1(c2ccccc2)OP(c2ccccc2)(c2ccccc2)(c2ccccc2)CC1c1ccccc1` (stereo not drawn), the survivor count (dose: 6.25 mg/kg/injection, schedule: Q04DX003 (ip), vehicle: saline with Tween-80) is listed as 6 of 6.
In the case of `BrC1CC2OC2C2OC12` (stereo not drawn), the survivor count by setting is: (dose: 200.0 mg/kg/injection, schedule: Q01DX001 (ip), vehicle: saline) 0 of 6; under setting [1], 0 of 6.
Regarding `CC(=O)c1ccc(F)cc1`, the survivor count under setting [2] is on record as 6 of 6.
As to `O=[N+]([O-])c1ccc(-c2ccc(Br)cc2)cc1`, under setting [3], the survivor count is reported as 5 of 6.
Consider `COC1CCCC[CH]1[Hg][Br]` (stereo not drawn), for which the survivor count under setting [4] is given as 0 of 3, the survivor count under setting [5] is 0 of 3, the survivor count under setting [6] was 0 of 3 and the survivor count under setting [7] is 0 of 3.
As to `Brc1ccccn1`, the survivor count runs as follows: under setting [8], 3 of 6; under setting [9], 0 of 6.
For the compound `CN(N=O)C(=O)NC1CC2CCC1C2` (stereo not drawn), the survivor count reads like this: (dose: 750.0 mg/kg/injection, schedule: Q01DX001 (ip), vehicle: other) 3 of 6; (dose: 1000.0 mg/kg/injection, schedule: Q01DX001 (ip), vehicle: other) 0 of 6.
On to `CCC(=O)OCC1OC(n2cc(F)c(=O)[nH]c2=O)CC1OC(=O)CC` (stereo not drawn), for which the T/C is 129 % of control (dose: 133.0 mg/kg/injection, schedule: Q01DX015 (ip), vehicle: saline); 142 % of control (dose: 200.0 mg/kg/injection, schedule: Q01DX015 (ip), vehicle: saline); 127 and 138 % of control (dose: 400.0 mg/kg/injection, schedule: Q04DX003 (ip), vehicle: saline).
For `CCOC(=O)C1C2OC(=O)C(C(=O)C2CN(CCCl)CCCl)C1C1CC=C(CC2=CCC(C3C4C(=O)OC(C(CN(CCCl)CCCl)C4=O)C3C(=O)OCC)CC2)CC1` (stereo not drawn), the T/C (dose: 6.25 mg/kg/injection, schedule: Q01DX009 (ip), vehicle: Klucel (hydroxypropylcellulose) (HPC)) was 143 % of control; the T/C (dose: 12.5 mg/kg/injection, schedule: Q01DX009 (ip), vehicle: Klucel (hydroxypropylcellulose) (HPC)) was 128 % of control; the T/C (dose: 25.0 mg/kg/injection, schedule: Q01DX009 (ip), vehicle: Klucel (hydroxypropylcellulose) (HPC)) is 130 % of control; the T/C (dose: 50.0 mg/kg/injection, schedule: Q01DX009 (ip), vehicle: Klucel (hydroxypropylcellulose) (HPC)) was 128 % of control; the T/C under setting [10] was 144 % of control; the T/C (dose: 266.0 mg/kg/injection, schedule: Q04DX003 (ip), vehicle: Klucel (hydroxypropylcellulose) (HPC)) was 126 % of control. In addition, the T/C is 125, 135, 141 % of control under setting [2]; 134 and 144 % of control (dose: 600.0 mg/kg/injection, schedule: Q04DX003 (ip), vehicle: Klucel (hydroxypropylcellulose) (HPC)). The survivor count was 5 of 6 and 10 of 10 under setting [10]; 10 of 10 under setting [11]; 0 of 10 under setting [12].
As to `Nc1ccc(N)c(N)n1`, the survivor count is, setting by setting: (dose: 75.0 mg/kg/injection, schedule: Q01DX001 (ip), vehicle: saline) 0 of 6; under setting [8], 0 of 6; under setting [9], 0 of 6.
Turning to `CCCCCP(=O)(CCCCC)C1CCCC1`, the survivor count is 0 of 3 (dose: 200.0 mg/kg/injection, schedule: Q04DX002 (ip), vehicle: saline with Tween-80) and 0 of 3 (dose: 400.0 mg/kg/injection, schedule: Q04DX002 (ip), vehicle: saline with Tween-80).
Take `O=C(NN1CCOCC1)c1ccc([N+](=O)[O-])s1`: the survivor count (dose: 400.0 mg/kg/injection, schedule: Q01DX005 (ip), vehicle: saline) is 1 of 4.
Turning to `c1ccc(Nc2nc(Nc3ccccc3)nc(Nc3ccccc3)n2)cc1`, the survivor count is, setting by setting: (dose: 100.0 mg/kg/injection, schedule: Q04DX002 (ip), vehicle: Klucel (hydroxypropylcellulose) (HPC)) 3 of 3; (dose: 200.0 mg/kg/injection, schedule: Q04DX002 (ip), vehicle: Klucel (hydroxypropylcellulose) (HPC)) 2 of 3; (dose: 400.0 mg/kg/injection, schedule: Q04DX002 (ip), vehicle: Klucel (hydroxypropylcellulose) (HPC)) 0 of 3.
Regarding `COc1cc(C=NCCN=Cc2cc(OC)c(OC)c(OC)c2)cc(OC)c1OC`, the survivor count under setting [7] is listed as 6 of 6.
Regarding `COc1ccc2cnnc(NN)c2c1`, the survivor count is, setting by setting: (dose: 150.0 mg/kg/injection, schedule: Q01DX001 (ip), vehicle: other) 3 of 6; (dose: 300.0 mg/kg/injection, schedule: Q01DX001 (ip), vehicle: other) 0 of 6.
As for `CN(C)/N=C1\C(=O)Nc2ccccc21`, the survivor count by setting is: under setting [11], 0 of 6; under setting [12], 0 of 6.
For the compound `COc1ccc2c(c1)C(=O)CC(C)N2S(=O)(=O)c1ccc(C)cc1` (stereo not drawn), the T/C (dose: 75.0 mg/kg/injection, schedule: Q04DX002 (ip), vehicle: Klucel (hydroxypropylcellulose) (HPC)) was 126 % of control.
For the compound `CCN(CC)CCCC(C)Nc1cc(/C=C/c2ccc(Cl)cc2)nc2ccc(N(C)C)cc12` (stereo not drawn), the survivor count was 4 of 6 under setting [4]; 0 of 6 under setting [5]; 0 of 6 under setting [6]; 0 of 6 under setting [7]; 0 of 6 under setting [3].
Consider `Clc1c2c(nc3ccccc13)CCCC2`, for which the survivor count under setting [1] was 1 of 4.
For the compound `CN(/N=C/c1ccccc1)C(=N)N`, the survivor count reads like this: (dose: 125.0 mg/kg/injection, schedule: Q04DX003 (ip), vehicle: saline) 1 of 6; under setting [8], 3 of 6; (dose: 250.0 mg/kg/injection, schedule: Q04DX003 (ip), vehicle: saline) 3 of 6; under setting [9], 0 of 6.
